Source: PubChem BioAssay AID2685 (National Center for Advancing Translational Sciences (NCATS), 2010)
Out of some 320,000 compounds screened, about 2,100 (0.66%) were called active. Inconclusive results, whose numbers are uncertain, are shown with a selection of clear calls. Calls follow the shape of the dose curve; as a rule, active = well fitted inhibition curve with a large enough effect in the signal ratio, with a control signal flat (not every such curve was filed as active); inconclusive = small, poorly fitted or top-dose-only effect, or effect the other way, or a change in a side signal; inactive = flat fitted curve, though single readings scatter; the % refers to the signal ratio. Where the call is inconclusive, the potency comes from a doubtful curve fit.

Test: qHTS Assay for Lipid Storage Modulators in Drosophila S3 Cells
Settings: BODIPY lipid droplet fluorescence, 18-24 h, cells fed with added oleic acid; lipid storage change, negative = inhibition: at 46.1 µM (top of the series) unless noted
Procedure, shortened: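 Drosophila S3 cells loaded with oleic acid (400 uM, as added) and compounds at several concentrations; lipid droplets imaged by 488-nm laser-scanning cytometry, 500–530 nm intensity and object ratio to cell channel. Percent activity normalized to 20 uM Triacsin C.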
% is scaled to controls: 0 for no effect and ±100 for the full control effect; potency is read from the fitted curve at half-maximal effect.

SMILES	Potency	lipid storage change, negative = inhibition	outcome
CCC(=O)c1cn(Cc2ccccc2C#N)c2ccccc12	inconclusive: 29.1 µM [activator, single point]	–	–
CCC(CO)(C(=O)OC1CC2CCC(C1)N2C)c1ccccc1 (centres undefined)	inconclusive: 0.58 µM [activator, single point]	–	–
O=C(Nc1cccc(Cl)c1)N1C[C@H]2C[C@@H](C1)c1cccc(=O)n1C2	–	inactive: 17.1%	–
O=C(Nc1ccc(F)cc1)Oc1ccccc1N1CCOCC1	inconclusive: 6.51 µM [falling, single point]	–	–
CCC(=NCCO)c1c(O)n(-c2ccc(Cl)cc2)c(=O)[nH]c1=O	–	inactive: 2.83%	–
O=C(Cc1ccccc1)OCc1ccccc1	–	inconclusive: -15.8%	–
CCc1ccc(NC(=O)CN2CC(c3ccccc3)CC2=O)cc1 (centres undefined)	–	inconclusive: 7.17%	–
CCc1ccc(N2C(=O)NC(=O)/C(=C\c3cccn3CCOc3ccc(C(C)C)cc3)C2=O)cc1	–	inconclusive: -2.19%	–
Cc1ccc(OCC(=O)N2CCN(CC3CC4C=CC3C4)CC2)cc1 (centres undefined)	–	inconclusive: -12%	–
COC(=O)C1=C(c2ccc(OC)c(OC)c2)C[C@@H]2CC[C@H]1N2C(=O)NCCOc1ccccc1Cl	–	inconclusive: -35.4%	–
CC(=O)N1N=C(c2cccnc2)OC1c1ccccc1Cl (centres undefined)	–	inconclusive: 14%	–
Cc1ccc(C)c(Cn2c(C(=O)O)c(C=O)c3ccccc32)c1	–	inconclusive: -12.8%	–
COc1ccc2nc(NC(=O)CCc3nc(C4=CCN(C)CC4)no3)sc2c1	inconclusive: 8.2 µM [activator, partial curve, poor fit]	–	–
Cc1cccc(N2CCN(C(=O)CCNS(=O)(=O)c3ccc4c(c3)oc(=O)n4C)CC2)c1C	inconclusive: 20.6 µM [falling, single point]	–	–
CN(C)c1ccc(CCN2CCOCC2)cc1	inconclusive: 6.51 µM [activator, single point]	–	–
O=C1NC(=S)N(c2ccc(F)cc2)C(=O)/C1=C/c1ccco1	–	inconclusive: 33.5%	–
Cc1cc(C=C2C(=O)NC(=S)NC2=O)c(C)n1-c1ccc2c(c1)OCO2	inconclusive: 18.4 µM [falling, single point]	–	–
O=C1C2CCCC1C(N1CCCC1)CC2 (centres undefined)	–	inconclusive: -11.2%	–
CC(=O)N1N=C2C3CCN(CC3)C2C1c1ccc(Br)cc1 (centres undefined)	–	inconclusive: -20.8%	–
Cc1ccccc1OCCN=Cc1c(O)n(C)c(=O)n(C)c1=O	–	inconclusive: -25.3%	–
O=c1ccc2cc(O[C@@H]3O[C@@H](CO)[C@H](O)[C@@H](O)[C@@H]3O)c(O)cc2o1	–	inconclusive: 29%	–
Brc1ccc(Oc2ccc(Br)cc2Br)c(Br)c1	inconclusive: 0.092 µM [falling, single point]	–	–
COc1ccc(C2c3c(nc(C)[nH]c3=O)Oc3c2c(=O)oc2ccccc32)cc1 (centres undefined)	–	inconclusive: 3.54%	–
O=C(Nc1ccc(Cl)c(Cl)c1)c1ccco1	active: 14.6 µM	–	–
O=c1[nH]c(=S)[nH]c(O)c1N=Nc1ccc(SC(F)F)cc1	–	inconclusive: -23.6%	–
Cn1nc(-c2ccc(OCC(=O)N3CCN(Cc4ccccc4)CC3)cc2)c2ccccc2c1=O	inconclusive: 0.0052 µM [falling, full curve, poor fit]	–	–
COc1ccc(C(CC(=O)N2CCC3(CC2)OCCO3)NS(=O)(=O)c2ccc(C)cc2)cc1 (centres undefined)	–	inconclusive: -30.7%	–

SMILES	Potency	lipid storage change, negative = inhibition	outcome
c1ccc(P(c2ccccc2)c2ccccn2)cc1	–	inconclusive: -22.6%	–
COc1ccc(N(Cc2ccccc2)N=O)cc1	inconclusive: 0.731 µM [falling, single point]	–	–
CCc1ccc(N2C(=O)NC(=O)C(Cc3ccc(OC)cc3OC)C2=O)cc1 (centres undefined)	inconclusive: 0.517 µM [falling, partial curve, poor fit]	–	–
O=C1CC(=O)N(c2ccc(Cl)cc2)C(=O)N1	–	inconclusive: 21.2%	–
CCC(C(=O)N1C[C@H]2C[C@@H](C1)c1cccc(=O)n1C2)c1ccccc1 (some centres undefined)	–	inconclusive: 19.5%	–
COCCNC(=O)CN1C(=O)CN=C(c2ccccc2)c2ccccc21	–	inconclusive: 2.77%	–
CCCC(C)n1[nH]c(=O)c2c1NC(=O)CSC2c1ccc(OC)c(OC)c1 (centres undefined)	–	inconclusive: -15.2%	–
Cc1c2cnn(CC(=O)N3CCC4(CC3)OCCO4)c(=O)c2c(C)n1Cc1ccc(F)cc1	–	inconclusive: 7.69%	–
CC/C(=N\Nc1cccc2ccccc12)c1c(O)[nH]c(=O)[nH]c1=O	inconclusive: 0.0731 µM [rising, full curve, poor fit]	–	–
Cc1cc(C=O)c(C)n1C1CCCCC1	–	inconclusive: 38.7%	–
O=C(O)c1ccccc1NC(=O)C1C2CCC(O2)C1C(=O)O (centres undefined)	inconclusive: 16.4 µM [falling, single point]	–	–
CCOC(=O)C(C)Oc1cc(C)cc2oc(=O)c3c(c12)CCCC3 (centres undefined)	inconclusive: 5.8 µM [activator, partial curve]	–	–
Cc1c(Oc2cc(NN3CCCCC3)c([N+](=O)[O-])cc2[N+](=O)[O-])cccc1[N+](=O)[O-]	–	inconclusive: 37.7%	–
CCC(=NCc1ccc2c(c1)OCO2)c1c(O)n(C)c(=O)n(C)c1=O	–	inconclusive: 38.6%	–
CCCCn1c(=O)c(C(=O)Nc2ncccc2C)c(O)c2ccccc21	inconclusive: 29.1 µM [activator, single point]	–	–
CN(C)C1=C(C#N)C(c2ccccc2)=NP(N(C)C)(N(C)C)=N1	–	inconclusive: 6.81%	–
CC1=NN(c2ccccc2)C(=O)/C1=C/c1c(O)[nH]c(=O)[nH]c1=O	–	inconclusive: -29.1%	–
N#CC(C#N)=Cc1ccc(C=C(C#N)C#N)cc1	inconclusive: 2.59 µM [falling, partial curve, poor fit]	–	–
CCN(CC)c1ccc(CNCCc2ccccc2F)cc1	inconclusive: 6.51 µM [cytotoxic, single point]	–	–
COc1ccc(C(=O)C2CCCN(CCO)C2)c(C)c1 (centres undefined)	active: 0.82 µM	–	–
COc1ccc(-c2csc(NC(=O)COC(=O)Cc3ccccc3)n2)cc1OC	inconclusive: 3.26 µM [rising, partial curve, poor fit]	–	–
Cc1cc(/C=C2\C(=O)NC(=O)N(c3ccc(F)cc3)C2=O)c(C)n1-c1ccc(C(=O)O)cc1	–	inconclusive: -15.7%	–
CCSC(=O)N1CCCCCC1	–	inconclusive: -24.6%	–
CSc1ccc(CNC2CN3CCC2CC3)cc1 (centres undefined)	–	inconclusive: -86%	–
COC(=O)C1=C(c2ccccc2OCc2ccccc2)C[C@@H]2CC[C@H]1N2C(=O)NCc1ccc(Br)cc1	inconclusive: 1.03 µM [falling, single point]	–	–
COC(=O)C1=C(c2cccc(C#N)c2)C[C@@H]2CC[C@H]1N2C(=O)NCCO	–	inconclusive: 2.13%	–
CC(Cc1ccccc1)N1C(=O)c2ccccc2C1=O (centres undefined)	–	inconclusive: -43.7%	–

SMILES	Potency	lipid storage change, negative = inhibition	outcome
CC1=C2[C@H]3OC(=O)[C@@H](C)[C@@H]3CC[C@@]2(C)C=CC1=O	–	inconclusive: -13.6%	–
O=C1/C(=C\c2cc3c(cc2Cl)OCO3)N2CCC1CC2	–	inconclusive: 6.53%	–
CCOP(=O)(Oc1ccccc1)c1c([N+](=O)[O-])cc(C(F)(F)F)cc1[N+](=O)[O-] (centres undefined)	–	inconclusive: -11.8%	–
OC(CNC1CCCCC1)c1ccccc1 (centres undefined)	–	inconclusive: -4.32%	–
COc1ccc(N2C(=O)CC(N3CC=C(c4ccccc4)CC3)C2=O)cc1 (centres undefined)	–	inconclusive: 13.3%	–
Cc1cc(C(=O)OCC(=O)Nc2ccccc2F)c(C)n1C1CC1	–	–	inconclusive [setting not given]
O=C1NC(=O)C(=Cc2cn(CCOc3ccc4c(c3)OCO4)c3ccccc23)C(=O)N1	–	inconclusive: 60.4%	–
Cc1ccc(N(C)C(=O)Oc2cccc3ccc(C)nc23)cc1	–	inconclusive: 12%	–
Cc1cc(OCC(=O)N2CCC(C(=O)O)(c3ccccc3)CC2)c2c(C)c(C)c(=O)oc2c1	–	inconclusive: 9.36%	–
COc1ccc(-n2c(-c3ccccc3[N+](=O)[O-])nc3ccccc3c2=O)cc1	inconclusive: 29.1 µM [falling, single point]	–	–
O=C(CCn1c(=O)oc2ccccc21)N1CCC2(CC1)OCCO2	–	inconclusive: -10.9%	–
Fc1ccc(C2N3CCCN23)cc1 (centres undefined)	–	inconclusive: -30.5%	–
COc1cccc(CNC(=O)CCS(=O)(=O)c2ccc3c(c2)oc(=O)n3C)c1	inconclusive: 29.1 µM [activator, single point]	–	–
Cc1ccc(-c2nc(N(C)C3CCN(C)CC3)c3ccccc3n2)cc1	–	inconclusive: -17.2%	–
Clc1ccccc1NC1=NCCCS1	–	inconclusive: -40.3%	–
O=C(c1ccc(Cl)cc1)C1CCCN(Cc2ccc3c(c2)OCCO3)C1 (centres undefined)	–	inconclusive: -1.4%	–
N#CC1=C(N)Oc2c(c(=O)oc3ccccc23)C1c1cccnc1 (centres undefined)	–	inconclusive: 12.2%	–
COc1ccccc1CN1CCN(Cc2ccc(Cl)cc2)CC1	–	inconclusive: 1.57%	–
C=C1N2CCC(CC2)C1(O)c1ccc(C)cc1 (centres undefined)	inconclusive: 6.51 µM [falling, partial curve, poor fit]	–	–
CC1(C)C(C(=O)NN2C(=O)c3ccccc3C2=O)C1(C)C	–	inconclusive: -9.17%	–
CN(C)CC#CCC(O)(c1ccccc1)C1CCCC1 (centres undefined)	–	inconclusive: -9.51%	–
O=c1c2ccccc2nc(SCC2CCCCO2)n1-c1ccccc1 (centres undefined)	–	inconclusive: 32.6%	–
NC(Cc1cc(O)c(O)cc1O)C(=O)O (centres undefined)	–	inconclusive: 10.7%	–
C[C@H]1CCC[C@H](O)CCCCCc2cc(O)cc(O)c2C(=O)O1	inconclusive: 2.59 µM [activator, full curve]	–	–
Cc1cc(C)nc(NS(=O)(=O)c2ccc(N=Cc3c(O)n(C)c(=O)n(C)c3=O)cc2)n1	–	inconclusive: -7.57%	–

Reprinted from the results shown (21 entries):
SMILES	Potency	lipid storage change, negative = inhibition	outcome
CCOC(=O)C(C)Oc1cc(C)cc2oc(=O)c3c(c12)CCCC3 (centres undefined)	inconclusive: 5.8 µM [activator, partial curve]	–	–
Cc1c(Oc2cc(NN3CCCCC3)c([N+](=O)[O-])cc2[N+](=O)[O-])cccc1[N+](=O)[O-]	–	inconclusive: 37.7%	–
CCC(=NCc1ccc2c(c1)OCO2)c1c(O)n(C)c(=O)n(C)c1=O	–	inconclusive: 38.6%	–
CCCCn1c(=O)c(C(=O)Nc2ncccc2C)c(O)c2ccccc21	inconclusive: 29.1 µM [activator, single point]	–	–
CN(C)C1=C(C#N)C(c2ccccc2)=NP(N(C)C)(N(C)C)=N1	–	inconclusive: 6.81%	–
CC1=NN(c2ccccc2)C(=O)/C1=C/c1c(O)[nH]c(=O)[nH]c1=O	–	inconclusive: -29.1%	–
N#CC(C#N)=Cc1ccc(C=C(C#N)C#N)cc1	inconclusive: 2.59 µM [falling, partial curve, poor fit]	–	–
CCN(CC)c1ccc(CNCCc2ccccc2F)cc1	inconclusive: 6.51 µM [cytotoxic, single point]	–	–
COc1ccc(C(=O)C2CCCN(CCO)C2)c(C)c1 (centres undefined)	active: 0.82 µM	–	–
COc1ccc(-c2csc(NC(=O)COC(=O)Cc3ccccc3)n2)cc1OC	inconclusive: 3.26 µM [rising, partial curve, poor fit]	–	–
Cc1cc(/C=C2\C(=O)NC(=O)N(c3ccc(F)cc3)C2=O)c(C)n1-c1ccc(C(=O)O)cc1	–	inconclusive: -15.7%	–
CCSC(=O)N1CCCCCC1	–	inconclusive: -24.6%	–
CSc1ccc(CNC2CN3CCC2CC3)cc1 (centres undefined)	–	inconclusive: -86%	–
COC(=O)C1=C(c2ccccc2OCc2ccccc2)C[C@@H]2CC[C@H]1N2C(=O)NCc1ccc(Br)cc1	inconclusive: 1.03 µM [falling, single point]	–	–
COC(=O)C1=C(c2cccc(C#N)c2)C[C@@H]2CC[C@H]1N2C(=O)NCCO	–	inconclusive: 2.13%	–
CC(Cc1ccccc1)N1C(=O)c2ccccc2C1=O (centres undefined)	–	inconclusive: -43.7%	–
CC1=C2[C@H]3OC(=O)[C@@H](C)[C@@H]3CC[C@@]2(C)C=CC1=O	–	inconclusive: -13.6%	–
O=C1/C(=C\c2cc3c(cc2Cl)OCO3)N2CCC1CC2	–	inconclusive: 6.53%	–
CCOP(=O)(Oc1ccccc1)c1c([N+](=O)[O-])cc(C(F)(F)F)cc1[N+](=O)[O-] (centres undefined)	–	inconclusive: -11.8%	–
OC(CNC1CCCCC1)c1ccccc1 (centres undefined)	–	inconclusive: -4.32%	–
COc1ccc(N2C(=O)CC(N3CC=C(c4ccccc4)CC3)C2=O)cc1 (centres undefined)	–	inconclusive: 13.3%	–
